Results: the M2OR odorant receptor database
Only a part is listed here, and it is no random draw. The calls were merged from several studies; some rest on single wells. The list shows a part of the results.

Amino acid sequences for entries named in this document (tags omitted). Chains listed by the source or under a name are the forms on record and can include a tag or linker.
UniProt Q8VGB9, as listed by the source: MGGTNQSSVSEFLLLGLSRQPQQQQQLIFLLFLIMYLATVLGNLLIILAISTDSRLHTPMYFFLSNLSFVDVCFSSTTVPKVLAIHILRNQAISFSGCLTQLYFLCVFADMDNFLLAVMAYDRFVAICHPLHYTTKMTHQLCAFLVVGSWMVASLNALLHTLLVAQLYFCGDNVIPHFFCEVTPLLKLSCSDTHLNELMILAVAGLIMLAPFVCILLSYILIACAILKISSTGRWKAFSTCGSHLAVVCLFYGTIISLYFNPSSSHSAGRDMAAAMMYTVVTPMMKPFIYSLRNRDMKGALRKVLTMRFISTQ
UniProt Q8VGC6, as listed by the source: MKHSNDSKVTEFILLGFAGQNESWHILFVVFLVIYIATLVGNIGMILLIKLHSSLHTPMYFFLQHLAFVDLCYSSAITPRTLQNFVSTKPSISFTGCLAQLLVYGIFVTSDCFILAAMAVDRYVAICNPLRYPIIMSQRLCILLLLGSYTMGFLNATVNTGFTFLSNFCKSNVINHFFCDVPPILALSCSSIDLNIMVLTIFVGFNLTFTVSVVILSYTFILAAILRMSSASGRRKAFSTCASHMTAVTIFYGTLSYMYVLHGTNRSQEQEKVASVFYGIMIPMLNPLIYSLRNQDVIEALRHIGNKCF
UniProt Q8VGJ3, as listed by the source: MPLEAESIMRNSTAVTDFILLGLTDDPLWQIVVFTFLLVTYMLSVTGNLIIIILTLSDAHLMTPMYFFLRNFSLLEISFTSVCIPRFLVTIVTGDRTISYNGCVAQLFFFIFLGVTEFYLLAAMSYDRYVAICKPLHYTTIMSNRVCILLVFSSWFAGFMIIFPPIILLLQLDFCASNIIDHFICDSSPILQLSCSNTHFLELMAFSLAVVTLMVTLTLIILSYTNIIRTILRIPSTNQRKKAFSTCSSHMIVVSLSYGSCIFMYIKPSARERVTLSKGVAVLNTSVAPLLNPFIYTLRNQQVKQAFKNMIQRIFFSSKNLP
UniProt Q8VGL0, as listed by the source: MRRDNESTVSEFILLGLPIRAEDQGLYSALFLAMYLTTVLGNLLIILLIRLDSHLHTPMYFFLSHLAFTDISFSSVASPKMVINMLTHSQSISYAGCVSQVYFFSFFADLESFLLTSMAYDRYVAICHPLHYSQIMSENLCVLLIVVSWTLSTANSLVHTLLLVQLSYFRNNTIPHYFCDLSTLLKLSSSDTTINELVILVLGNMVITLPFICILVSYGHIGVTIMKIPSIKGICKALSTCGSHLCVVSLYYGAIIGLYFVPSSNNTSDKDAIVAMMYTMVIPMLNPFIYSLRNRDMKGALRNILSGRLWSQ
UniProt Q8VGU3, as listed by the source: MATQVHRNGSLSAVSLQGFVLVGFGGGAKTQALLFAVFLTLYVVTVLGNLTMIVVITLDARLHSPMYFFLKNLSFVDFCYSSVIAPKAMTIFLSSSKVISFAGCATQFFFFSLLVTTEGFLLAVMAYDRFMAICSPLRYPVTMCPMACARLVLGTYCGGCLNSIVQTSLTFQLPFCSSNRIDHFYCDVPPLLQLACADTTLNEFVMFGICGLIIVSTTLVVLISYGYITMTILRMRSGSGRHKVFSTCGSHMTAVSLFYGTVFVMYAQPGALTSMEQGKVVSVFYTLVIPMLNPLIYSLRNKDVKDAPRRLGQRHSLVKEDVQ
UniProt Q8VGV7, as listed by the source: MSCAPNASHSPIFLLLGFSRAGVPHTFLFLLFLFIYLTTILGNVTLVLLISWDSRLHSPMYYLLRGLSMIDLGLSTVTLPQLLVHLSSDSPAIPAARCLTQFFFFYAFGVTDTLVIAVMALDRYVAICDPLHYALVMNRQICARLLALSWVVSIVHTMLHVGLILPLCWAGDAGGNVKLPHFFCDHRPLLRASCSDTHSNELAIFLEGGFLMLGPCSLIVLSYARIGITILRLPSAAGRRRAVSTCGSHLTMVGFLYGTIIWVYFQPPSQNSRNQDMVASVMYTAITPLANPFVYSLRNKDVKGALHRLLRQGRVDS
UniProt Q8VGX3, as listed by the source: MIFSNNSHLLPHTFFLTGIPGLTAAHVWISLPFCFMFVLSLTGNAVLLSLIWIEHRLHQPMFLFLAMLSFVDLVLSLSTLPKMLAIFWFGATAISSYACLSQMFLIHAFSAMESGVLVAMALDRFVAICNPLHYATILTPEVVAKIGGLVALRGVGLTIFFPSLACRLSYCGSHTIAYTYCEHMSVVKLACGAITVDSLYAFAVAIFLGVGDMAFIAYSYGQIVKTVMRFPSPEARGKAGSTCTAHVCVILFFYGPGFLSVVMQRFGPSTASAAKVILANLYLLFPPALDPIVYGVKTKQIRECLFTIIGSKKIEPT
UniProt Q8VGX5, as listed by the source: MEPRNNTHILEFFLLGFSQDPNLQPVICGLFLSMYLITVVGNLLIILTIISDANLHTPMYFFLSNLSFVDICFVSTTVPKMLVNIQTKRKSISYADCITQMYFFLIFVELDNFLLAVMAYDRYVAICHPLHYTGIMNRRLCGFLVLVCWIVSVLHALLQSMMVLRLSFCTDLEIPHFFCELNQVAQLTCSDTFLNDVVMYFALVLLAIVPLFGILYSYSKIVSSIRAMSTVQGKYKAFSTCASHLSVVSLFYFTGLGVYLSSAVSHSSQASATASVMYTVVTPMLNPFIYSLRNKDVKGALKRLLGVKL
UniProt Q8VGZ2, as listed by the source: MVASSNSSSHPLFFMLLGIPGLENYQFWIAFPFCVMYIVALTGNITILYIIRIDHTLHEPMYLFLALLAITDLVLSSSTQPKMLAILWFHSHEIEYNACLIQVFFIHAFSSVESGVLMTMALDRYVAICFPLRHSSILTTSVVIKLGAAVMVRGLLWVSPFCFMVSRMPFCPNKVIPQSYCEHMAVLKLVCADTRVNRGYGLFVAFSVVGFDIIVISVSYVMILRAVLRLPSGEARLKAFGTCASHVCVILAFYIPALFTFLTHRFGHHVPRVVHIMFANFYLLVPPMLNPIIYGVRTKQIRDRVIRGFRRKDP
UniProt Q8VGZ7, as listed by the source: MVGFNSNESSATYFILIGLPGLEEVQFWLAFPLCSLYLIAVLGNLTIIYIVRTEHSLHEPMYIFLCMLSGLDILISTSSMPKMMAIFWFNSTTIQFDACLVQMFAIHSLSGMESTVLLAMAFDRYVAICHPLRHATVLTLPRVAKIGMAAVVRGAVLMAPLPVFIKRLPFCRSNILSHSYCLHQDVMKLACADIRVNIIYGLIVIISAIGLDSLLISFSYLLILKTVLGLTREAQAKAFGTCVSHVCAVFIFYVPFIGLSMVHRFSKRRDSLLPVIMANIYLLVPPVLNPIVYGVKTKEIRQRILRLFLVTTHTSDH

Tests used:
Settings in all cases: stereoisomer not certain
UniProt Q8VGB9 = molecular target: UniProt Q8VGB9
Outline: (§1)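 Each entry records the cell line, G-protein, co-transfected protein and tags used. Methods varied with the source, often transient luciferase assays in mammalian cell lines. A receptor–molecule pair is called responsive (active) if the original authors judged its signal statistically different from baseline and non-responsive (inactive) otherwise.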

UniProt Q8VGC6 = molecular target: UniProt Q8VGC6
Outline: as §1

UniProt Q8VGJ3 = molecular target: UniProt Q8VGJ3
Outline: as §1

UniProt Q8VGL0 = molecular target: UniProt Q8VGL0
Outline: as §1

UniProt Q8VGU3 = molecular target: UniProt Q8VGU3
Outline: as §1

UniProt Q8VGV7 = molecular target: UniProt Q8VGV7
Outline: as §1

UniProt Q8VGX3 = molecular target: UniProt Q8VGX3
Outline: as §1

UniProt Q8VGX5 = molecular target: UniProt Q8VGX5
Outline: as §1

UniProt Q8VGZ2 = molecular target: UniProt Q8VGZ2
Outline: as §1

UniProt Q8VGZ7 = molecular target: UniProt Q8VGZ7
Outline: as §1

Measured: odorant receptor agonist call

CCOc1cc(C=O)ccc1O
inactive: all assays above

CCC(C)=O
inactive: all assays above
